Results reported in the supplement of paper PMC10849652.
This is one part of the list.

By UniProt entry, the sequences of proteins in these tests, tags left out. Where a name states a change or a piece, a line headed by the entry shows the natural chain unless it says otherwise.
UniProt Q8NCR0: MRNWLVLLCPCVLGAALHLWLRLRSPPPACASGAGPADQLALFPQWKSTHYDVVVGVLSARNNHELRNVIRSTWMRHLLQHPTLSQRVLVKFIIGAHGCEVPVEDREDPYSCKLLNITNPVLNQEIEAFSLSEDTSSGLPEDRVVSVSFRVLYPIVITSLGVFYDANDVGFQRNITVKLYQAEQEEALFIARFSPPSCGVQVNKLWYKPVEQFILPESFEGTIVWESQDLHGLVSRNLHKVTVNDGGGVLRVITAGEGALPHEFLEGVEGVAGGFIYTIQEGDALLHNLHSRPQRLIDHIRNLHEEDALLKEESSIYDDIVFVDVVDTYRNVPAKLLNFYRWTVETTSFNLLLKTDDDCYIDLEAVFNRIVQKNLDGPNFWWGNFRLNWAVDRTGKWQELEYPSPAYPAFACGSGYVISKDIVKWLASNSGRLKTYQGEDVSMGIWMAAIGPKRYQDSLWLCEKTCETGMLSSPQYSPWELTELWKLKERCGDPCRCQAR
UniProt Q9NQS1: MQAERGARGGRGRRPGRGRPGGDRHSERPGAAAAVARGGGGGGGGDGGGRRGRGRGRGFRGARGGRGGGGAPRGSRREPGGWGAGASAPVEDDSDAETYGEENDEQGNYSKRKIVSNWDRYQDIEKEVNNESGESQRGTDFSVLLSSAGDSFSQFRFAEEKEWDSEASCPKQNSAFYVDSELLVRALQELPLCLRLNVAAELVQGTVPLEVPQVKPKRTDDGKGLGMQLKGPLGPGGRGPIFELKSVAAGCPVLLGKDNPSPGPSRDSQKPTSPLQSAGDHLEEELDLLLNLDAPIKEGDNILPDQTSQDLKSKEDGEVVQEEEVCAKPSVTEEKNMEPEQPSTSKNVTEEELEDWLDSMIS
UniProt Q96QE3: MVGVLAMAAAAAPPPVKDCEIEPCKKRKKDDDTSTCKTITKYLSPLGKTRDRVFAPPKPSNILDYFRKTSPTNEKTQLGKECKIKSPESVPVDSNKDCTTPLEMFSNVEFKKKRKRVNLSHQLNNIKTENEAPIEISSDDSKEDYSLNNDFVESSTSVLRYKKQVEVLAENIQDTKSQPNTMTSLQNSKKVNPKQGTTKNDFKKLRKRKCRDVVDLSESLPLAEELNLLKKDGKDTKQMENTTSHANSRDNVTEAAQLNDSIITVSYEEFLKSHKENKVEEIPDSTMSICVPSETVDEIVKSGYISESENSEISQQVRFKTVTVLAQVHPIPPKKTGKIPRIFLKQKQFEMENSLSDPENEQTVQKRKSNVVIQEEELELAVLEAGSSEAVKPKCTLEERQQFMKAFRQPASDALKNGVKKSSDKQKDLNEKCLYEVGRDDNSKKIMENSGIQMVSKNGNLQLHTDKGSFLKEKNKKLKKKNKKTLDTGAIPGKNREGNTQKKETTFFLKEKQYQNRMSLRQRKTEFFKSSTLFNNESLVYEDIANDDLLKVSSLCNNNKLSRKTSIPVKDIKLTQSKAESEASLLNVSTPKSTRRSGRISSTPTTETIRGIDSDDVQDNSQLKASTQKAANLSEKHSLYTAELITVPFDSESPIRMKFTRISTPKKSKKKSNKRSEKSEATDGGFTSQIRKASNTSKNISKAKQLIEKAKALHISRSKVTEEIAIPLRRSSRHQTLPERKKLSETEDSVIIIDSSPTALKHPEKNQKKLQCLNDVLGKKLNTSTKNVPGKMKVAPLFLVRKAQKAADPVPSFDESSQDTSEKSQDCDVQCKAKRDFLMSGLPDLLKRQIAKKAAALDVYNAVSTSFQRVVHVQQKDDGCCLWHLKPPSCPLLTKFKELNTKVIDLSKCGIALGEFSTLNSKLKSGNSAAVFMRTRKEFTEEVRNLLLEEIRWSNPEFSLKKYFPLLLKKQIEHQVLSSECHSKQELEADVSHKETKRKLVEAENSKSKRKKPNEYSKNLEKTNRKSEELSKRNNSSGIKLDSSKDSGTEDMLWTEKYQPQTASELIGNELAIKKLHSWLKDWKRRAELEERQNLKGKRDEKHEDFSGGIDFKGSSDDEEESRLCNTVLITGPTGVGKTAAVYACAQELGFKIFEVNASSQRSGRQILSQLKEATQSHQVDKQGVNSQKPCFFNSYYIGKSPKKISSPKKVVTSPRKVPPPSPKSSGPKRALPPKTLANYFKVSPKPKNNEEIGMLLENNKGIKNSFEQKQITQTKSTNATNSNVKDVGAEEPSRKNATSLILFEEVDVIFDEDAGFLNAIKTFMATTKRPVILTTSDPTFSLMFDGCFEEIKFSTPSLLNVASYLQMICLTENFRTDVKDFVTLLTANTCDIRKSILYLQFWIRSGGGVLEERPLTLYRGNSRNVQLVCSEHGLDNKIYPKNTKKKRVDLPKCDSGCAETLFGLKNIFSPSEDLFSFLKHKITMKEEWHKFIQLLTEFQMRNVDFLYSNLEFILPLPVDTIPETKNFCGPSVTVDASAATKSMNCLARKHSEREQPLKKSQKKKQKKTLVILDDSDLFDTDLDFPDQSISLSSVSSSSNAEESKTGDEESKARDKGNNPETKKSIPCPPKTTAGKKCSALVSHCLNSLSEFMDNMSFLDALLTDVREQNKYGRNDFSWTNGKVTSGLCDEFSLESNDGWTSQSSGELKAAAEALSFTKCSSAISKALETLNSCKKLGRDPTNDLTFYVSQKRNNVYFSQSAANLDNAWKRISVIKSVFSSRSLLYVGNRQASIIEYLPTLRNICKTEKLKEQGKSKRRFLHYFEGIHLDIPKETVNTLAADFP
UniProt Q9UN42: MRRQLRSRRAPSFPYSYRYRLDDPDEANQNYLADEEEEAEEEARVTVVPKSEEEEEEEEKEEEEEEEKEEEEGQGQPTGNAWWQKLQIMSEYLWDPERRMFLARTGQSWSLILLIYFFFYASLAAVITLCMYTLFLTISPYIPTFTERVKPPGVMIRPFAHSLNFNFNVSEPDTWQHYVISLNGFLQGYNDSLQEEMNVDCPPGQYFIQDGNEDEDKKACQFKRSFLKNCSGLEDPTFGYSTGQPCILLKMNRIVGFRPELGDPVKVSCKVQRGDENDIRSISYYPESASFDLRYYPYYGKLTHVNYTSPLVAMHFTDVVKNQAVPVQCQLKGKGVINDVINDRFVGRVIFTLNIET

Columns and labels:
Experiment in all cases: log2 fold change, soluble protein after heating vs DMSO (PISA); higher = thermal stabilisation; K562 lysate, 10 uM; active = over 0.2 and 3.5 SD of the protein, either way, in both replicates (recomputed)
lapatinib = compound: CS(=O)(=O)CCNCc1ccc(-c2ccc3ncnc(Nc4ccc(OCc5cccc(F)c5)c(Cl)c4)c3c2)o1 [lapatinib]
In short: (§1)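 The values are log-two fold changes in thermal stability compared with solvent controls and come from duplicates. They were obtained by TMTpro 16plex LC-MS/MS, with channel sums equalised, on the supernatant after 21,000xg for 90 min. That supernatant came from crude K562 extract at 1 mg/mL protein treated with 10 μM compound for 30 min, heated for 3 min across 48°C-58°C, pooled and brought to 0.5% NP-40 at 4°C.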

[1] = compound: C[C@H](C1=CC=C(C=C1)C(=O)NC2=C3C=CNC3=NC=C2)N
In short: as §1

gandotinib = compound: Cc1cc(Nc2cc(CN3CCOCC3)c3nc(C)c(Cc4ccc(Cl)cc4F)n3n2)n[nH]1 [gandotinib]
In short: as §1

[2] = compound: Cc1cccc(CC(=O)N2CCc3c2ccc(-c2cn(C)c4ncnc(N)c24)c3F)n1
In short: as §1

nilotinib = compound: Cc1cn(-c2cc(NC(=O)c3ccc(C)c(Nc4nccc(-c5cccnc5)n4)c3)cc(C(F)(F)F)c2)cn1 [nilotinib]
In short: as §1

[3] = compound: Cc1nc(Nc2n[nH]c3c2CN(C(=O)N[C@H](CN(C)C)c2ccccc2)C3(C)C)c2sccc2n1
In short: as §1

[4] = compound: Cc1ncc(-c2ccnc(Nc3ccc(S(C)(=O)=O)cc3)n2)n1C(C)C
In short: as §1

tipifarnib = compound: Cn1cncc1[C@@](N)(c1ccc(Cl)cc1)c1ccc2c(c1)c(-c1cccc(Cl)c1)cc(=O)n2C [tipifarnib]
In short: as §1

[5] = compound: NC(=O)c1cnc(N[C@@H]2CCCC[C@@H]2N)nc1Nc1cccc(-n2nccn2)c1
In short: as §1

[6] = compound: NC1(c2ccc(-c3nc4ccn5c(=O)[nH]nc5c4cc3-c3ccccc3)cc2)CCC1
In short: as §1

crizotinib = compound: C[C@@H](Oc1cc(-c2cnn(C3CCNCC3)c2)cnc1N)c1c(Cl)ccc(F)c1Cl [crizotinib]
In short: as §1

duvelisib = compound: C[C@H](Nc1ncnc2nc[nH]c12)c1cc2cccc(Cl)c2c(=O)n1-c1ccccc1 [duvelisib]
In short: as §1

doramapimod = compound: Cc1ccc(-n2nc(C(C)(C)C)cc2NC(=O)Nc2ccc(OCCN3CCOCC3)c3ccccc23)cc1 [doramapimod]
In short: as §1

dasatinib = compound: Cc1nc(Nc2ncc(C(=O)Nc3c(C)cccc3Cl)s2)cc(N2CCN(CCO)CC2)n1 [dasatinib]
In short: as §1

[7] = compound: Cn1cc(-c2ccc3c(c2)CCN3C(=O)Cc2cccc(C(F)(F)F)c2)c2c(N)ncnc21
In short: as §1

quisinostat = compound: Cn1cc(CNCC2CCN(c3ncc(C(=O)NO)cn3)CC2)c2ccccc21 [quisinostat]
In short: as §1

[8] = compound: NC(=O)Nc1cc(-c2cccc(F)c2)sc1C(=O)N[C@H]1CCCNC1
In short: as §1

pictilisib = compound: CS(=O)(=O)N1CCN(Cc2cc3nc(-c4cccc5[nH]ncc45)nc(N4CCOCC4)c3s2)CC1 [pictilisib]
In short: as §1

tozasertib = compound: Cc1cc(Nc2cc(N3CCN(C)CC3)nc(Sc3ccc(NC(=O)C4CC4)cc3)n2)n[nH]1 [tozasertib]
In short: as §1

bafetinib = compound: Cc1ccc(NC(=O)c2ccc(CN3CC[C@H](N(C)C)C3)c(C(F)(F)F)c2)cc1Nc1nccc(-c2cncnc2)n1 [bafetinib]
In short: as §1

Measured: log2 fold change

ATP5F1A (UniProt K7ENJ4)
inactive: lapatinib 0.024 | [1] -0.181 | gandotinib -0.082 | [2] 0.25 | nilotinib -0.288 | [3] 0.039 | [4] 0.093 | tipifarnib 0.081 | [5] -0.06 | [6] 0.162

B3GALNT2 (UniProt Q8NCR0)
inactive: lapatinib 0.148 | crizotinib 0.174 | duvelisib 0.21 | doramapimod 0.108 | nilotinib 0.026 | [3] -0.19 | dasatinib -0.086 | [4] -0.11 | [7] -0.019 | quisinostat -0.055 | tipifarnib -0.182 | [8] -0.149 | [5] 0.116

AVEN (UniProt Q9NQS1)
inactive: pictilisib 0.022 | crizotinib -0.08 | [1] -0.462 | duvelisib 0.014 | gandotinib 0.262 | tozasertib 0.084 | doramapimod 0.068 | bafetinib -0.097 | [2] 0.338 | nilotinib -0.014 | [3] 0.068 | dasatinib 0.01 | [4] 0.025 | [7] -0.08 | quisinostat -0.042 | tipifarnib -0.188 | [8] 0.038 | [6] 0.154

ATAD5 (UniProt Q96QE3)
inactive: tozasertib 0.26 | nilotinib 0.078 | [3] 0.007 | [4] -0.067 | tipifarnib -0.061 | [6] -0.025

Two consecutive entries out of the list so far, quoted:
ATP5F1A (UniProt K7ENJ4)
inactive: lapatinib 0.024 | [1] -0.181 | gandotinib -0.082 | [2] 0.25 | nilotinib -0.288 | [3] 0.039 | [4] 0.093 | tipifarnib 0.081 | [5] -0.06 | [6] 0.162

B3GALNT2 (UniProt Q8NCR0)
inactive: lapatinib 0.148 | crizotinib 0.174 | duvelisib 0.21 | doramapimod 0.108 | nilotinib 0.026 | [3] -0.19 | dasatinib -0.086 | [4] -0.11 | [7] -0.019 | quisinostat -0.055 | tipifarnib -0.182 | [8] -0.149 | [5] 0.116

Going on with the list.

ATP1B4 (UniProt Q9UN42)
inactive: lapatinib 0.111 | crizotinib 0.197 | duvelisib -0.128 | doramapimod -0.077 | dasatinib 0.032 | [7] -0.011 | quisinostat 0.139 | [8] 0.024 | [5] -0.002
